Melanoma cell counts after drug treatment

Data from the primary screen of doi:10.1371/journal.pone.0140310, rounded.

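Human melanoma cell lines in 1,536-well plates were treated with a pair of drugs for 72 h, then fixed, stained and imaged. The read-out is cell count (nuclei) in % of the DMSO control; lower values mean stronger growth inhibition or killing. Every drug was used at one fixed concentration, the lower of two screened (a fifth of the higher). No replicate spread is given; individual values may be noisy.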 An unselected part of the screen is shown.

All values are for the listed drug together with cediranib (400 nM): COc1cc2c(Oc3ccc4[nH]c(C)cc4c3F)ncnc2cc1OCCCN1CCCC1

* C[C@]1(c2nc3c(C(N)=O)cccc3[nH]2)CCCN1 at 1400 nM : A101D: 83.8; A2058: 89.9; A375: 103; C32: 90.4
* CS(=O)(=O)CCNCc1ccc(-c2ccc3ncnc(Nc4ccc(OCc5cccc(F)c5)c(Cl)c4)c3c2)o1 at 800 nM : A101D: 84.1; A2058: 96.6; A375: 73.1; C32: 97.2
* Cc1cc(N2CCOCC2)cc2[nH]c(-c3c(NC[C@@H](O)c4cccc(Cl)c4)cc[nH]c3=O)nc12 at 200 nM : A101D: 89.5; A2058: 120; A375: 75.0; C32: 89.1
* CN(c1ncccc1CNc1nc(Nc2ccc3c(c2)CC(=O)N3)ncc1C(F)(F)F)S(C)(=O)=O at 80 nM : A101D: 96.3; A2058: 77.6; A375: 72.1; C32: 80.4
* CC1(C)CCC(c2ccc(Cl)cc2)=C(CN2CCN(c3ccc(C(=O)NS(=O)(=O)c4ccc(N[C@H](CCN5CCOCC5)CSc5ccccc5)c(S(=O)(=O)C(F)(F)F)c4)cc3)CC2)C1 at 400 nM : A101D: 49.2; A2058: 83.2; A375: 85.7; C32: 64.7
* O=C(O)[C@@H]1[O][Sb](=[O])([O][Sb]2(=[O])[O][C@H]([C@H](O)CO)[C@H](O)[C@H](C(=O)O)[O]2)[O][C@H]([C@H](O)CO)[C@@H]1O (some centres unmarked) at 2000 nM : A101D: 89.6; A2058: 95.1; A375: 92.4; C32: 79.5
* Cn1c(Nc2ccc(C(F)(F)F)cc2)nc2cc(Oc3ccnc(-c4ncc(C(F)(F)F)[nH]4)c3)ccc21 at 80 nM : A101D: 64.3; A2058: 92.6; A375: 73.5; C32: 78.8
* C[C@@H](N)c1ccc(C(=O)Nc2ccnc3[nH]ccc23)cc1 at 400 nM : A101D: 79.5; A2058: 86.4; A375: 104; C32: 76.1
* O=C(O)c1ccc2c(c1)nc(Nc1cccc(Cl)c1)c1ccncc12 at 400 nM : A101D: 110; A2058: 91.1; A375: 90.7; C32: 78.8
* N#CC[C@H](C1CCCC1)n1cc(-c2ncnc3[nH]ccc23)cn1 at 1000 nM : A101D: 114; A2058: 105; A375: 114; C32: 108
* C#Cc1cccc(Nc2ncnc3cc(OCCOC)c(OCCOC)cc23)c1 at 800 nM : A101D: 104; A2058: 96.0; A375: 65.4; C32: 88.0
* Cc1ccc(Nc2nccc(N(C)c3ccc4c(C)n(C)nc4c3)n2)cc1S(N)(=O)=O at 400 nM : A101D: 104; A2058: 101; A375: 112; C32: 98.0
* N.N.[Cl][Pt][Cl] at 1600 nM : A101D: 95.8; A2058: 89.1; A375: 111; C32: 101
* CCCCCCCCCCCCCCCCCCOP(=O)([O-])OC1CC[N+](C)(C)CC1 at 400 nM : A101D: 118; A2058: 98.0; A375: 76.3; C32: 99.2
* CS(=O)(=O)c1ccc(C(=O)Nc2ccc(Cl)c(-c3ccccn3)c2)c(Cl)c1 at 1000 nM : A101D: 116; A2058: 91.1; A375: 97.2; C32: 101
* C=C(c1ccc(C(=O)O)cc1)c1cc2c(cc1C)C(C)(C)CCC2(C)C at 2000 nM : A101D: 89.2; A2058: 99.4; A375: 93.0; C32: 96.0
* Nc1cccc2c1CN(C1CCC(=O)NC1=O)C2=O (centres unmarked) at 1000 nM : A101D: 103; A2058: 111; A375: 88.2; C32: 103
* CNC(=O)c1cc(Oc2ccc(NC(=O)Nc3ccc(Cl)c(C(F)(F)F)c3)cc2)ccn1 at 400 nM : A101D: 98.4; A2058: 81.4; A375: 104; C32: 78.3
* COCC[n+]1c2c(n(Cc3cnccn3)c1C)C(=O)c1ccccc1C2=O at 0.4 nM : A101D: 95.6; A2058: 59.6; A375: 77.2; C32: 88.9
* C[C@@H](Oc1cc(-c2cnn(C3CCNCC3)c2)cnc1N)c1c(Cl)ccc(F)c1Cl at 200 nM : A101D: 103; A2058: 94.1; A375: 111; C32: 90.0
* O=C(/C=C/c1cccnc1)NCCCCC1CCN(C(=O)c2ccccc2)CC1 at 10 nM : A101D: 92.1; A2058: 109; A375: 105; C32: 114
* CC[C@]1(O)C[C@H]2CN(CCc3c([nH]c4ccccc34)[C@@](C(=O)OC)(c3cc4c(cc3OC)N(C=O)[C@H]3[C@@](O)(C(=O)OC)[C@H](OC(C)=O)[C@]5(CC)C=CCN6CC[C@]43[C@@H]65)C2)C1 at 0.1 nM : A101D: 80.7; A2058: 82.4; A375: 85.3; C32: 84.6
* O=c1[nH]nc(Sc2ncc([N+](=O)[O-])s2)n1-c1ccc2c(c1)OCCO2 at 200 nM : A101D: 101; A2058: 97.9; A375: 109; C32: 90.6
* C[As](C)SC[C@H](NC(=O)CC[C@H](N)C(=O)O)C(=O)NCC(=O)O at 400 nM : A101D: 121; A2058: 102; A375: 113; C32: 94.7
* OCc1c[nH]c2ccccc12 at 800 nM : A101D: 107; A2058: 101; A375: 81.9; C32: 85.5
* O=C(Nc1cc(C(F)(F)F)cc(C(F)(F)F)c1)c1cc(Cl)ccc1O at 16 nM : A101D: 89.2; A2058: 90.7; A375: 70.6; C32: 106

Repeated from the top, 2 entries:

Partner,A101D,A2058,A375,C32
C[C@]1(c2nc3c(C(N)=O)cccc3[nH]2)CCCN1 at 1400 nM,83.8,89.9,103,90.4
CS(=O)(=O)CCNCc1ccc(-c2ccc3ncnc(Nc4ccc(OCc5cccc(F)c5)c(Cl)c4)c3c2)o1 at 800 nM,84.1,96.6,73.1,97.2